## Primary screen of a compound library

By UniProt entry, the sequences of proteins in these tests, tags left out. Residues count along the entry.
UniProt P9WFT3, whole entry: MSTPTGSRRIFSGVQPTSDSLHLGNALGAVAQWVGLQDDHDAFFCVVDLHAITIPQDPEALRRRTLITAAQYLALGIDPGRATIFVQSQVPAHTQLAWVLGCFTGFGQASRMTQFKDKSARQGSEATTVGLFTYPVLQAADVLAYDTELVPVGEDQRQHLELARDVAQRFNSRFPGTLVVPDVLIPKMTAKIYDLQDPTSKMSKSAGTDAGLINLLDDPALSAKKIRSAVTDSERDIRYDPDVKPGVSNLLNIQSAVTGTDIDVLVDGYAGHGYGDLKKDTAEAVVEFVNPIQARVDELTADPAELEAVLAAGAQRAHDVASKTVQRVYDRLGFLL
UniProt I6X8D2, whole entry: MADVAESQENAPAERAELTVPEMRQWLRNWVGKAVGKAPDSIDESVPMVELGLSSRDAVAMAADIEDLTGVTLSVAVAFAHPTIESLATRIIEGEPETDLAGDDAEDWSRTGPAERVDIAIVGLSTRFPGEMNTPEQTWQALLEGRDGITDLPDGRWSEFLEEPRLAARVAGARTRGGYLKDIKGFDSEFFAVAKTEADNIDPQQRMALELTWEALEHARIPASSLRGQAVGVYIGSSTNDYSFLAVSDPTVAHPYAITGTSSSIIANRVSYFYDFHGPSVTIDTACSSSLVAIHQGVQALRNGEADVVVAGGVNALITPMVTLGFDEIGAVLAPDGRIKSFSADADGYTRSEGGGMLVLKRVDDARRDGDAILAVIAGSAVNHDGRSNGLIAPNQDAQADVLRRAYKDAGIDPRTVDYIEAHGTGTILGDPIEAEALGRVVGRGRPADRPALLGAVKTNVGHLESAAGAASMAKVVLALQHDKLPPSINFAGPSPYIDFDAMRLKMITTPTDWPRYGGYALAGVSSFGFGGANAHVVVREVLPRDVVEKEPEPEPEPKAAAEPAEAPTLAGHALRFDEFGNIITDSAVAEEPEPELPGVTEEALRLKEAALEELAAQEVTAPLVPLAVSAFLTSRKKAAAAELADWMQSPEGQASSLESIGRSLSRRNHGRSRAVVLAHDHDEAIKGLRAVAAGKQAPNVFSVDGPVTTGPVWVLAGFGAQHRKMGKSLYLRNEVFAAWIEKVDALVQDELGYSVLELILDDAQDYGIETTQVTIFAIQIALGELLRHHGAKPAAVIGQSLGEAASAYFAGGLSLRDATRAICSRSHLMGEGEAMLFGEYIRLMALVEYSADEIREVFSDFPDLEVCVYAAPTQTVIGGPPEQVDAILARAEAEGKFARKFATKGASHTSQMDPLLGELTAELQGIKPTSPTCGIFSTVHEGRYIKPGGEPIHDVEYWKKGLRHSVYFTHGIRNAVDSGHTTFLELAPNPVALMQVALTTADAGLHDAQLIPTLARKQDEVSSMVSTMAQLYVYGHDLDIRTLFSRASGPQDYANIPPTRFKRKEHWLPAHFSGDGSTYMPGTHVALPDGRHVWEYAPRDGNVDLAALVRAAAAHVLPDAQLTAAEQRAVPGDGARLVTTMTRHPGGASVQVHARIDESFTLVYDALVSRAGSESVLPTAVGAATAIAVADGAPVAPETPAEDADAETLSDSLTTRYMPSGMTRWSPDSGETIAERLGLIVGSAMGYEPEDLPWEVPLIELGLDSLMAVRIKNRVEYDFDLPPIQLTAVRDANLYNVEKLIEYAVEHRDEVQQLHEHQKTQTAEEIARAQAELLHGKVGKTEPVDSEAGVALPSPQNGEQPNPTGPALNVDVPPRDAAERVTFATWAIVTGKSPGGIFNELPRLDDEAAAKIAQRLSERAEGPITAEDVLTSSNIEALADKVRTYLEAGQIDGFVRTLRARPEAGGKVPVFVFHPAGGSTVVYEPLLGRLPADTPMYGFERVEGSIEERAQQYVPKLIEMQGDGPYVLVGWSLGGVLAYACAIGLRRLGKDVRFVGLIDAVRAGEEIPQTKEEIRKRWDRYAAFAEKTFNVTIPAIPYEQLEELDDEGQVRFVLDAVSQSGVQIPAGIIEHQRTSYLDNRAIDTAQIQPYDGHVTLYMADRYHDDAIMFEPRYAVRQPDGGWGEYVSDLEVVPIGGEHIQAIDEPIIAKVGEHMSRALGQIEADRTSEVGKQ
UniProt Q4DA54, 1-478: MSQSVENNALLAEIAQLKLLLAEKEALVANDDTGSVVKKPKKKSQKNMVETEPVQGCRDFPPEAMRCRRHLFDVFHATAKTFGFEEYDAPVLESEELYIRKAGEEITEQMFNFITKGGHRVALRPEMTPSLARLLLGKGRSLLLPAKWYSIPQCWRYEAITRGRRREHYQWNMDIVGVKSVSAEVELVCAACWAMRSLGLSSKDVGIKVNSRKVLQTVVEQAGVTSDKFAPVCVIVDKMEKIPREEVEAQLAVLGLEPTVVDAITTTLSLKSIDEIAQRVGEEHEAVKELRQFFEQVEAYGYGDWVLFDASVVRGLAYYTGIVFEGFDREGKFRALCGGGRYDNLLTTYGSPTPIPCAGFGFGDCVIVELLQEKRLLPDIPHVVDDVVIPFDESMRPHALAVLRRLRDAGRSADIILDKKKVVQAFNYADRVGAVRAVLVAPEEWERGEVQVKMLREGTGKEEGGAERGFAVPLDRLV

Measurements from “University of Dundee, Small-Polar-MMV Screening Library” (2021), ChEMBL document CHEMBL3988442.

MtTrpRS: 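Tryptophan-tRNA ligase, Mycobacterium tuberculosis (UniProt P9WFT3). Enzyme assay of tryptophanyl-tRNA synthetase; the read-out is not stated. Compounds at 10 µM. Higher most likely means stronger inhibition; the record gives no direction and few retests gave an IC50. Of about 65,000 compounds tested this way, about 64 (0.098%) reached 50% or more in at least one test.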
Leishmania in macrophages: 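Cell assay of Leishmania donovani living inside macrophages; the read-out is not stated. Compounds at 30 µM. Higher reads as stronger inhibition (inferred: compounds with an IC50 in retests scored well above the rest). About 69,000 compounds were tested under these conditions; 1.5% (about 1,000) showed 50% or more at least once.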
Pks13 thioesterase: 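Enzyme assay of the thioesterase domain of polyketide synthase 13; the read-out is not stated. Target: Polyketide synthase Pks13, Mycobacterium tuberculosis (UniProt I6X8D2). Tested at 30 µM. Higher reads as stronger inhibition (inferred from which compounds were picked for retests). Of about 67,000 compounds tested this way, about 300 (0.46%) reached 50% or more in at least one test.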
TcHisRS: 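Histidine-tRNA ligase, Trypanosoma cruzi CL Brener (UniProt Q4DA54). Enzyme assay of histidyl-tRNA synthetase; the read-out is not stated. Concentration: 30 µM. The record gives no direction; compounds that gave an IC50 in retests scored well above the rest, so higher reads as stronger inhibition. Of about 69,000 compounds tested this way, about 31 (0.045%) reached 50% or more in at least one test.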

Each number is a percent effect as filed. The controls that fix the scale are not given in the record; negative values are as filed. Compounds were drawn at random from those tested, without regard to their results. A dash means the value is not listed here; it may have been measured.

compound,MtTrpRS,Leishmania in macrophages,Pks13 thioesterase,TcHisRS
Cc1nc(-c2ccccc2)n(CC(=O)NC2CCCCC2)n1,-1.168,21.78,-15.26,5.172
Cc1cc(C(=O)Nc2cccn(Cc3ccc(F)cc3)c2=O)no1,0.8541,2.868,-12.33,2.212
CC(=O)c1ccc(S(=O)(=O)N2CCCC2CN2CCCC2)cc1 (centres unmarked),-2.257,-11.18,5.169,-0.9804
CNC(=O)CN1CCCC12CCN(C(=O)c1ccccc1F)CC2,-5.669,-,-15.5,3.883
CN(C)c1ncc2c(n1)CCCC2NC(=O)C1CC1 (centres unmarked),-2.29,28.92,-,2.041
O=C(O)C(F)(F)F.O=C(O)C(F)(F)F.[H][C@]12C[C@@H](CN(C)C)N(C(C)=O)[C@@]1([H])CCN(c1ncc(F)cn1)C2,-,-5.909,-,-
CN(Cc1nnc(C2CC2)o1)C1CCCN(c2cccnn2)C1 (centres unmarked),0.000006,-26.39,3.902,21.9
CN(CCC#N)C(=O)CSc1cc(F)ccc1F,9.964,-1.414,-2.431,-3.061
O=C1COc2ccc(Cl)cc2CN1CC1CC1,1.731,-60.85,-25.43,3.636
OC1CCCOC12CCN(c1ncccn1)CC2 (centres unmarked),3.824,-9.093,1.188,1.681
CCc1cnc(N2C[C@H]3CN(Cc4ccc(OC)cc4)C(=O)[C@H]3C2)nc1,-1.199,-,-38.69,4.813
Cn1cc(CN2CC[C@]3(C[C@H](OCc4ccccn4)CO3)C2)cn1,1.936,11.93,-7.334,3.659
O=C(CCNC(=O)c1ccoc1)Nc1ccc(F)cc1F,-4.475,2.773,-8.621,-0.8403
O=C(O)C(F)(F)F.O=C(O)C(F)(F)F.[H][C@]12CN(C)C[C@@]1(C(=O)O)CCCN(Cc1ccc(C)s1)C2,-,23.76,-,-
COc1ccc([C@@H]2CN(c3cc(C(=O)O)ccn3)C[C@H]2N(C)C)cc1,12.18,2.762,37.21,9.211
Cc1ccn(CC(=O)Nc2cc(-c3ccncc3)[nH]n2)n1,-2.081,13.9,-14.01,5.82
Cc1nn(C)c2c(=O)n(CC(=O)NCc3ccccc3Cl)ccc12,-2.022,19.67,-22.47,-0.9901
CC(C)NC(=O)N1CCC2(COCc3cnc(-c4cccnc4)nc32)C1 (centres unmarked),4.446,-25.16,-24.55,2.762
[H][C@]12CC[C@]([H])(CN(Cc3cccnc3)C1)N(C(=O)CSCCC)C2,-,15.6,-,-
O=C(O)C(F)(F)F.O=C(O)C(F)(F)F.[H][C@]12C[C@@H](C(=O)Nc3cccnc3)CO[C@@]1([H])CCN(C(C)C)C2,-,-12.98,-,-
O=S(=O)(NCC1(O)CCOc2ccccc21)c1ccccc1Br (centres unmarked),2.033,14.3,-13.28,-1.02
Cc1cc(C)nc(C2CCCN2S(=O)(=O)N2CCOCC2)n1 (centres unmarked),-7.236,-35.66,8.332,-0.7752
Cc1ccnn1CCN1CCCC2(CCC(=O)N(C3CCCC3)C2)C1 (centres unmarked),0.7651,-73.74,-14.93,5.473
CN(C[C@@H]1CCC[C@@H]2CN(Cc3cccnc3)C[C@@H]21)C1CC1,-5.289,-,-35.61,3.743
CCN(C)c1ncnc2c1CCN(C(=O)N(C)C)CC2.O=C(O)C(F)(F)F,-,-11.1,-,-
CCc1nc(CC(=O)N2CCOCC2c2ncon2)cs1 (centres unmarked),-2.041,11.92,1.271,3.448
O=C(Cc1c[nH]c2ccccc12)N1CCC(Nc2cccnc2)CC1,-1.271,8.084,1.219,9.012
O=S(=O)(C1CC1)N1CCO[C@H]2[C@H](OCCN3CCCC3)CC[C@@H]21,4.092,-,4.824,1.622
COCc1cn(CC2CCN(Cc3cc(C)[nH]n3)CC2)nn1,18.95,-6.66,-14.93,0.4975
c1csc(-c2nc(CN3CCOC(Cn4cncn4)C3)cs2)c1 (centres unmarked),-6.14,15.07,-1.704,3.03
O=C(OC1CCC1)c1ncccc1C(F)(F)F,-5.317,11.38,-30.47,2.222
CNC(=O)C1CN(C(C)C)CCN1c1ncccn1 (centres unmarked),0.9161,-5.988,-4.332,5.747
CN(Cc1ccccn1)C(=O)c1cc(CN2CCC(O)CC2)on1,-2.515,34.56,3.941,5.759

The last 4 entries again:

{"compound": "c1csc(-c2nc(CN3CCOC(Cn4cncn4)C3)cs2)c1", "stereo": "centres unmarked", "MtTrpRS": -6.14, "Leishmania in macrophages": 15.07, "Pks13 thioesterase": -1.704, "TcHisRS": 3.03}
{"compound": "O=C(OC1CCC1)c1ncccc1C(F)(F)F", "MtTrpRS": -5.317, "Leishmania in macrophages": 11.38, "Pks13 thioesterase": -30.47, "TcHisRS": 2.222}
{"compound": "CNC(=O)C1CN(C(C)C)CCN1c1ncccn1", "stereo": "centres unmarked", "MtTrpRS": 0.9161, "Leishmania in macrophages": -5.988, "Pks13 thioesterase": -4.332, "TcHisRS": 5.747}
{"compound": "CN(Cc1ccccn1)C(=O)c1cc(CN2CCC(O)CC2)on1", "MtTrpRS": -2.515, "Leishmania in macrophages": 34.56, "Pks13 thioesterase": 3.941, "TcHisRS": 5.759}